Results taken from the supplement of paper PMC10849652.
The list shows a part of the results.

Protein sequences, listed by entry. Tags and fused reporters are not part of them. Lines headed by an entry give the natural chain unless they say otherwise; changes in a name come on top.
UniProt O95429: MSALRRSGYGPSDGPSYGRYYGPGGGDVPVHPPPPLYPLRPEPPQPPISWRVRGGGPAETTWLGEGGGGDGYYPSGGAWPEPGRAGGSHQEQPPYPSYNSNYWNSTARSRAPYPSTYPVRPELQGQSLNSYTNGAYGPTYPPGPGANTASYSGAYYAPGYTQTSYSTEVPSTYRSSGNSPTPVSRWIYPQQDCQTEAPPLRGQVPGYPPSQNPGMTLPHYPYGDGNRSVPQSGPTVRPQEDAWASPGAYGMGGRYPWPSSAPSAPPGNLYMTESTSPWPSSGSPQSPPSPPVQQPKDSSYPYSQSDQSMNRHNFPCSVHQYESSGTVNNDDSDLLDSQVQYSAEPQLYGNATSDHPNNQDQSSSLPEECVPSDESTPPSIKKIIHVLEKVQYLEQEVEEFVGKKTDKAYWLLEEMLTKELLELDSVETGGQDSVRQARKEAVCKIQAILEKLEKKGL
UniProt O14965: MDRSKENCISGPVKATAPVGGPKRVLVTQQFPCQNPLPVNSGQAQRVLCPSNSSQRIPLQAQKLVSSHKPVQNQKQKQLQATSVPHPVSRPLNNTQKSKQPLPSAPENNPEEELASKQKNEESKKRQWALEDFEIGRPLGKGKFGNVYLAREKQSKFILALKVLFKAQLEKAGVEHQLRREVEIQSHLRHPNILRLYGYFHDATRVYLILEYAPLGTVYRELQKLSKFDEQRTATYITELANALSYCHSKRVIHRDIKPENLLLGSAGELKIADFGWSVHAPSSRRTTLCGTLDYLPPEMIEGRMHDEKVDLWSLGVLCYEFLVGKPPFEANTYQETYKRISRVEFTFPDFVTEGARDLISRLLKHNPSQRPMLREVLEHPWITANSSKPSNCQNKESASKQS
UniProt Q86WA6: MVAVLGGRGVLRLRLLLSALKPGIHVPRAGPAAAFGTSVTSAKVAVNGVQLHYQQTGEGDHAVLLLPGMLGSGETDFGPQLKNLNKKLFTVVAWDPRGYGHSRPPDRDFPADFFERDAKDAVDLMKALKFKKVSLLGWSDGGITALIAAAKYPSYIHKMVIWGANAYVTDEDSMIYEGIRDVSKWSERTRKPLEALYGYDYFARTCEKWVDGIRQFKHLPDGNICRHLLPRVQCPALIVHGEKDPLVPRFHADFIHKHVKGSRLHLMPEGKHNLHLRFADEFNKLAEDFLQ
UniProt Q6W2J9: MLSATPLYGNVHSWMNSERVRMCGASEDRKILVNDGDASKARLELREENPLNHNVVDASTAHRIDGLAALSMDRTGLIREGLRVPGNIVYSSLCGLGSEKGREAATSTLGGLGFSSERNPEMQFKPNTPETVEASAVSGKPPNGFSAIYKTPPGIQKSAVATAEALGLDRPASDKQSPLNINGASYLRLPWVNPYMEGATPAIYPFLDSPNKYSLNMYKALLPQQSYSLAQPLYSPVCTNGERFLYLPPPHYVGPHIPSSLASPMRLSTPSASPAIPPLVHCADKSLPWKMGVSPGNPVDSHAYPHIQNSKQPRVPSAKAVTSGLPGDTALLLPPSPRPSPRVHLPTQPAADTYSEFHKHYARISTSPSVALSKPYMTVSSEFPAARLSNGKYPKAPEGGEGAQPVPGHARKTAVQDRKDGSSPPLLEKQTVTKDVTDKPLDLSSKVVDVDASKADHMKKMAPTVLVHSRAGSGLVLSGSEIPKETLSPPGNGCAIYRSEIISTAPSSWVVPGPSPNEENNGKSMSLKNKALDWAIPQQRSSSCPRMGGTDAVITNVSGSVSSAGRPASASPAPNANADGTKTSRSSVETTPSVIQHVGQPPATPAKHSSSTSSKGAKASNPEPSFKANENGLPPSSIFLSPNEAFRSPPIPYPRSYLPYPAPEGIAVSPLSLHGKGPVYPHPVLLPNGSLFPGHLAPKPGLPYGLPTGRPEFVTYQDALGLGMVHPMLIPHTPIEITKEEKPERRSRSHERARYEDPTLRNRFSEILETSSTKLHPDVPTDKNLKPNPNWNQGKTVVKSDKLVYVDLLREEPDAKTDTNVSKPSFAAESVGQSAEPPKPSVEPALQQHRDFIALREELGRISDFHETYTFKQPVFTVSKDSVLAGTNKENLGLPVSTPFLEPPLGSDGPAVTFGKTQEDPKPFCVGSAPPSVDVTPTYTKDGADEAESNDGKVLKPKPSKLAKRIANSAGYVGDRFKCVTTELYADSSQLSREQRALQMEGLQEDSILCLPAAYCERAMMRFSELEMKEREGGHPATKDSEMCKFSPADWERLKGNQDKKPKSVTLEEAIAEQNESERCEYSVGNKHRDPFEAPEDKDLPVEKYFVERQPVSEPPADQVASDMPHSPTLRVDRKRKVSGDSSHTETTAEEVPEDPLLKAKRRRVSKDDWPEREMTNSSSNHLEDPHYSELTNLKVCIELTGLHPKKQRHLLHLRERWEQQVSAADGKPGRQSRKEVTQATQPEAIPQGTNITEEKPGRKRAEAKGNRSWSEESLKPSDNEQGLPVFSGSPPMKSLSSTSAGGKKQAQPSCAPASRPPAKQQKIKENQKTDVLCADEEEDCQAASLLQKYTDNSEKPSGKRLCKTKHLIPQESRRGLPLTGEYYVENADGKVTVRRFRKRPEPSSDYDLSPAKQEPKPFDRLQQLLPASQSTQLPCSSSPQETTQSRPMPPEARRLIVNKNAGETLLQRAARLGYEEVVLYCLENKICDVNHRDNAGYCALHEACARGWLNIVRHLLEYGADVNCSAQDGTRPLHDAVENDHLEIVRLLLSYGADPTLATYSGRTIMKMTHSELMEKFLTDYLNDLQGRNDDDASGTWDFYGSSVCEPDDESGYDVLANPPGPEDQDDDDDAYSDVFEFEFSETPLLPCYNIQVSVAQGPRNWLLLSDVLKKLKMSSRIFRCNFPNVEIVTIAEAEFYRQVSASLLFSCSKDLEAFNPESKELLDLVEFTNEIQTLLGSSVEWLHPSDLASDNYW
UniProt P61769, whole entry, looked up: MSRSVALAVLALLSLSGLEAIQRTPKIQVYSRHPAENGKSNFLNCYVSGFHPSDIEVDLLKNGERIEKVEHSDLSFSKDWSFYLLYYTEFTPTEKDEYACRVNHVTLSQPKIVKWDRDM
UniProt P15291: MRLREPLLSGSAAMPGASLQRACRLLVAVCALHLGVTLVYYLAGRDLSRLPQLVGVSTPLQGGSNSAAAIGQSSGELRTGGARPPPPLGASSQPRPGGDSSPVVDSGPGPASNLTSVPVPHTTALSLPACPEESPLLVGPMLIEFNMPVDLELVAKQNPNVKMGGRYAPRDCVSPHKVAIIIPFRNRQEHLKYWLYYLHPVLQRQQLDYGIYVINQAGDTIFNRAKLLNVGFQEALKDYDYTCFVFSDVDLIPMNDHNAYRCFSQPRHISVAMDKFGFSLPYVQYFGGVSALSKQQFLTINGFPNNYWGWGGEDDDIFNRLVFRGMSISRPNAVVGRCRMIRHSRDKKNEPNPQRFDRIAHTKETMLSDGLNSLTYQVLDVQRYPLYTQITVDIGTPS
UniProt O43521, whole entry, looked up: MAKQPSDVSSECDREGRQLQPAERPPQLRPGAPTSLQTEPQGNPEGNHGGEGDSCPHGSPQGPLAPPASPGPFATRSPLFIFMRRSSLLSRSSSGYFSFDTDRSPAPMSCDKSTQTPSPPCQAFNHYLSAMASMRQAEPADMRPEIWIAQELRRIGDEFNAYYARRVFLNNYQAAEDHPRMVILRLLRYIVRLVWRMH
UniProt Q9H0E9, whole entry, looked up: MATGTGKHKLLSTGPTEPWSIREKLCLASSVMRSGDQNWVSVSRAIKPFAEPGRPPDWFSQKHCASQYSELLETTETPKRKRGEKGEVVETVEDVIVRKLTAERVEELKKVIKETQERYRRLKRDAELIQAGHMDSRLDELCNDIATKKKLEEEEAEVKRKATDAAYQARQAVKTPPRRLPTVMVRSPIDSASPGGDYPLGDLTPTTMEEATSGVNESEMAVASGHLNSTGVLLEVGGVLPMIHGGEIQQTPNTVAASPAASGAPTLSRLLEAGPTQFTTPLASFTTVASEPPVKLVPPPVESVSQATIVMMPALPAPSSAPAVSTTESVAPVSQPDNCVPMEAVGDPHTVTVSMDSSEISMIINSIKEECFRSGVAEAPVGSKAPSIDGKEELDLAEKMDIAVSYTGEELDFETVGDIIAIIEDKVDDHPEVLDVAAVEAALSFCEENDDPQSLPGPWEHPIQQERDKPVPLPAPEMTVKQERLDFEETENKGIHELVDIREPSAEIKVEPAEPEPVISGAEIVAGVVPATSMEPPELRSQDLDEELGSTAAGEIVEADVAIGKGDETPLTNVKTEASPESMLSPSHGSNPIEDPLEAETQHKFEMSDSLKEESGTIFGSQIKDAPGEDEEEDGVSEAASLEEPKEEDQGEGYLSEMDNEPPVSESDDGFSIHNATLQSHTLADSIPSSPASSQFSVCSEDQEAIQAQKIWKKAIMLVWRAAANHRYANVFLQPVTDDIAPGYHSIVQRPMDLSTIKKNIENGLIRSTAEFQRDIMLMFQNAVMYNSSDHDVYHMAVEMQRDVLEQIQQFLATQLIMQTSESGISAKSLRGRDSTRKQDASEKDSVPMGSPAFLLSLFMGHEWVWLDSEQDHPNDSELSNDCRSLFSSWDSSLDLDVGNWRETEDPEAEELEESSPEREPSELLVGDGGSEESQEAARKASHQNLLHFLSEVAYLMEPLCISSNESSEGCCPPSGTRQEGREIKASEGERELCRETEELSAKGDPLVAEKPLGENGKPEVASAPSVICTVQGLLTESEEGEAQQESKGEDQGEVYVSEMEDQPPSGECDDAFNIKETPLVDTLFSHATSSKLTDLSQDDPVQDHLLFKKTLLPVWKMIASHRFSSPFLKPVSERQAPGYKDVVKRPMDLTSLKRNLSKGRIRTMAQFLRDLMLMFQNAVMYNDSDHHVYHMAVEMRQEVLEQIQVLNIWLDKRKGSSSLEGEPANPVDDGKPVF
UniProt Q9NWD9: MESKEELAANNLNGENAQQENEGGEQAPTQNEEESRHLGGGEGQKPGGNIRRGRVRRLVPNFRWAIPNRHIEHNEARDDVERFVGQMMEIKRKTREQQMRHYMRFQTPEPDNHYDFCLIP
UniProt O15392, whole entry, looked up: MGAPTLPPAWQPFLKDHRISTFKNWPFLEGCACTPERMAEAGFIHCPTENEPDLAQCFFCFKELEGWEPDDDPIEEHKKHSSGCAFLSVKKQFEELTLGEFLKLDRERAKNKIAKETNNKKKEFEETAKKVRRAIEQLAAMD
UniProt Q8WUW1: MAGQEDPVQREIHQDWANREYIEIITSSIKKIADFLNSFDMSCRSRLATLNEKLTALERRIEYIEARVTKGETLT
UniProt P56945: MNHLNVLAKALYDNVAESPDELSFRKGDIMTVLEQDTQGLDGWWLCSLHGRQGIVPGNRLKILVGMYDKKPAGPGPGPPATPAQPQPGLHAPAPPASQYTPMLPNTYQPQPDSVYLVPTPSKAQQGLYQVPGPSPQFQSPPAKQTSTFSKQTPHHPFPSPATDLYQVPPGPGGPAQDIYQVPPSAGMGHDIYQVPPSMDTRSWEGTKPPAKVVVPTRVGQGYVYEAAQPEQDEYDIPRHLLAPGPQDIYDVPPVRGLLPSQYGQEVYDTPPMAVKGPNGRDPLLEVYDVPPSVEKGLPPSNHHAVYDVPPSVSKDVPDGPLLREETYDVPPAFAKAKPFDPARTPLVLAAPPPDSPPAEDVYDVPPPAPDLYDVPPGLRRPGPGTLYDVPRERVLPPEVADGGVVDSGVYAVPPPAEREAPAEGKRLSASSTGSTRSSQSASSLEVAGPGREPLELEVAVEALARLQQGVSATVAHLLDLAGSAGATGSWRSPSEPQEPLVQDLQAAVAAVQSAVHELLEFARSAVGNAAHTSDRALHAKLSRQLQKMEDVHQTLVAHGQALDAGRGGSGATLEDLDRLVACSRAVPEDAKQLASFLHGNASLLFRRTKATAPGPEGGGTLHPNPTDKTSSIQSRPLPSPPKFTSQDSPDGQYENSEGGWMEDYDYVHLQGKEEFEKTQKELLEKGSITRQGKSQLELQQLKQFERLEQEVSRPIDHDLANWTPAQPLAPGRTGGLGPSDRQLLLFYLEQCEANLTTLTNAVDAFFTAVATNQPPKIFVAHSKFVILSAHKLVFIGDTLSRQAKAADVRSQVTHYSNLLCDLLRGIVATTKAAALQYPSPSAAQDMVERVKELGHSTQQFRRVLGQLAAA
UniProt Q14457, whole entry, looked up: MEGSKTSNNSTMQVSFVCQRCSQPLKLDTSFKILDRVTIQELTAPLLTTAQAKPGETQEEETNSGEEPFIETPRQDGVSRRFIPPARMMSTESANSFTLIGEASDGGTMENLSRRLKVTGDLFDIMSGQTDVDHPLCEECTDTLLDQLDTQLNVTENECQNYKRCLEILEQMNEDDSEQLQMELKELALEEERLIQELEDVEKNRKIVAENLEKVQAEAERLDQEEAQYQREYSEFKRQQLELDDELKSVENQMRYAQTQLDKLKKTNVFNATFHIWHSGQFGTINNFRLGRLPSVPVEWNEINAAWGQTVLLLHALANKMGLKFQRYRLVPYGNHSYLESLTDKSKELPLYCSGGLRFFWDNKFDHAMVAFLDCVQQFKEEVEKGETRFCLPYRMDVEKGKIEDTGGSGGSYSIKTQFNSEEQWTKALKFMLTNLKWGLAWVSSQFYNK

Tests used:
Experiment in all cases: log2 fold change, soluble protein after heating vs DMSO (PISA); higher = thermal stabilisation; K562 cells, 10 uM, 30 min; active = over 0.2 and 3.5 SD of the protein, either way, in both replicates (recomputed)
saracatinib = compound: CN1CCN(CCOc2cc(OC3CCOCC3)c3c(Nc4c(Cl)ccc5c4OCO5)ncnc3c2)CC1 [saracatinib]
In short: (§1)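 Aliquots of K562 cells (2×10^6 cells/mL) treated with 10 μM compound for 30 min were heated for 3 min over 48°C-58°C. After pooling and extraction in PBS with 0.5% NP-40 at 4°C, soluble protein from a 21,000xg, 90 min spin was quantified by TMTpro 16plex LC-MS/MS with channel sums equalised. Thermal stability is expressed against control samples, from duplicates, as a log2 fold change.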

sotrastaurin = compound: CN1CCN(c2nc(C3=C(c4c[nH]c5ccccc45)C(=O)NC3=O)c3ccccc3n2)CC1 [sotrastaurin]
In short: as §1

alvocidib = compound: CN1CC[C@H](c2c(O)cc(O)c3c(=O)cc(-c4ccccc4Cl)oc23)[C@H](O)C1 [alvocidib]
In short: as §1

Tubastatin A = compound: CN1CCc2c(c3ccccc3n2Cc2ccc(C(=O)NO)cc2)C1 [Tubastatin A]
In short: as §1

[1] = compound: CNC(=O)C1=CC=CC=C1NC2=NC(=NC=C2Cl)NC3=C(C=C(C=C3)N4CCOCC4)OC
In short: as §1

defactinib = compound: CNC(=O)c1ccc(Nc2ncc(C(F)(F)F)c(NCc3nccnc3N(C)S(C)(=O)=O)n2)cc1 [defactinib]
In short: as §1

rucaparib = compound: CNCc1ccc(-c2[nH]c3cc(F)cc4c3c2CCNC4=O)cc1 [rucaparib]
In short: as §1

[2] = compound: CNc1nc(-c2ccc3c(N)n[nH]c3c2)cc(N2C[C@@H](C(=O)NC3CCCCC3)CC[C@H]2C)n1
In short: as §1

encorafenib = compound: COC(=O)N[C@@H](C)CNc1nccc(-c2cn(C(C)C)nc2-c2cc(Cl)cc(NS(C)(=O)=O)c2F)n1 [encorafenib]
In short: as §1

[3] = compound: COC(=O)[C@H](CCSC)NC(=O)C1=C(C=C(C=C1)NC[C@H](CS)N)C2=CC=CC=C2
In short: as §1

[4] = compound: COC1=CC=C(C=C1)CN2C=CC3=C2C=C(C=C3)C(=O)NO
In short: as §1

filanesib = compound: CON(C)C(=O)N1N=C(c2cc(F)ccc2F)S[C@@]1(CCCN)c1ccccc1 [filanesib]
In short: as §1

zotarolimus = compound: CO[C@H]1C[C@@H]2CC[C@@H](C)[C@@](O)(O2)C(=O)C(=O)N2CCCC[C@H]2C(=O)O[C@H]([C@H](C)C[C@@H]2CC[C@H](n3cnnn3)[C@H](OC)C2)CC(=O)[C@H](C)/C=C(\C)[C@@H](O)[C@@H](OC)C(=O)[C@H](C)C[C@H](C)/C=C/C=C/C=C/1C [zotarolimus]
In short: as §1

idasanutlin = compound: COc1cc(C(=O)O)ccc1NC(=O)[C@@H]1N[C@@H](CC(C)(C)C)[C@](C#N)(c2ccc(Cl)cc2F)[C@H]1c1cccc(Cl)c1F [idasanutlin]
In short: as §1

alisertib = compound: COc1cc(Nc2ncc3c(n2)-c2ccc(Cl)cc2C(c2c(F)cccc2OC)=NC3)ccc1C(=O)O [alisertib]
In short: as §1

[5] = compound: COc1cc2nc(-c3cc(F)ccc3O)nc(N[C@@H]3CNC[C@H]3C(C)(C)O)c2cc1OC
In short: as §1

gefitinib = compound: COc1cc2ncnc(Nc3ccc(F)c(Cl)c3)c2cc1OCCCN1CCOCC1 [gefitinib]
In short: as §1

[6] = compound: COc1cccc2cc(-c3nc([C@H]4CC[C@H](C(=O)O)CC4)n4ncnc(N)c34)[nH]c12
In short: as §1

lapatinib = compound: CS(=O)(=O)CCNCc1ccc(-c2ccc3ncnc(Nc4ccc(OCc5cccc(F)c5)c(Cl)c4)c3c2)o1 [lapatinib]
In short: as §1

pictilisib = compound: CS(=O)(=O)N1CCN(Cc2cc3nc(-c4cccc5[nH]ncc45)nc(N4CCOCC4)c3s2)CC1 [pictilisib]
In short: as §1

Measured: log2 fold change

BAG4 (UniProt O95429)
inactive: saracatinib 0.009 | sotrastaurin 0.015 | alvocidib -0.109 | Tubastatin A -0.04 | [1] -0.021 | defactinib -0.112 | rucaparib 0.013 | [2] -0.018 | encorafenib 0.034 | [3] -0.011 | [4] 0.025 | filanesib 0.001 | zotarolimus 0 | idasanutlin 0.018 | alisertib -0.003 | [5] -0.064 | gefitinib 0.032 | [6] 0.044 | lapatinib -0.001 | pictilisib 0.047

AURKA (UniProt O14965)
inactive: saracatinib -0.019 | sotrastaurin -0.02 | Tubastatin A 0.011 | rucaparib 0.073 | [2] 0.201 | encorafenib 0.033 | [3] 0.071 | [4] 0.021 | filanesib 0.009 | zotarolimus -0.021 | idasanutlin -0.095 | [5] 0.048 | gefitinib -0.03 | [6] 0.01 | lapatinib 0.025 | pictilisib 0.055
active: [1] 0.974 | defactinib 0.722 | alisertib 1.36

BPHL (UniProt Q86WA6)
inactive: saracatinib 0.056 | sotrastaurin 0.019 | Tubastatin A -0.259 | [1] 0.025 | defactinib -0.014 | rucaparib 0.069 | [2] 0.006 | encorafenib -0.012 | [3] -0.017 | [4] -0.118 | filanesib -0.018 | zotarolimus 0.017 | idasanutlin -0.007 | alisertib 0.004 | [5] 0.081 | gefitinib 0.049 | [6] -0.056 | lapatinib -0.033 | pictilisib 0.033

ATXN2 (UniProt F8W0B5)
inactive: saracatinib -0.076 | sotrastaurin 0.038 | alvocidib 0.152 | [1] -0.019 | rucaparib -0.006 | [2] 0.05 | encorafenib -0.034 | filanesib 0.225 | zotarolimus -0.017 | idasanutlin 0.101 | alisertib -0.024 | gefitinib -0.011 | [6] 0.062 | pictilisib 0.194

Two records picked at random from the list so far, as already listed:
BPHL (UniProt Q86WA6)
inactive: saracatinib 0.056 | sotrastaurin 0.019 | Tubastatin A -0.259 | [1] 0.025 | defactinib -0.014 | rucaparib 0.069 | [2] 0.006 | encorafenib -0.012 | [3] -0.017 | [4] -0.118 | filanesib -0.018 | zotarolimus 0.017 | idasanutlin -0.007 | alisertib 0.004 | [5] 0.081 | gefitinib 0.049 | [6] -0.056 | lapatinib -0.033 | pictilisib 0.033

BAG4 (UniProt O95429)
inactive: saracatinib 0.009 | sotrastaurin 0.015 | alvocidib -0.109 | Tubastatin A -0.04 | [1] -0.021 | defactinib -0.112 | rucaparib 0.013 | [2] -0.018 | encorafenib 0.034 | [3] -0.011 | [4] 0.025 | filanesib 0.001 | zotarolimus 0 | idasanutlin 0.018 | alisertib -0.003 | [5] -0.064 | gefitinib 0.032 | [6] 0.044 | lapatinib -0.001 | pictilisib 0.047

(cont.)

BCOR (UniProt Q6W2J9)
inactive: saracatinib -0.182 | sotrastaurin 0.215 | alvocidib 0.146 | Tubastatin A 0.073 | [1] -0.093 | defactinib 0.041 | [2] -0.102 | [3] 0.07 | [4] -0.487 | filanesib 0.136 | zotarolimus -0.294

B2M (UniProt P61769)
inactive: saracatinib -0.062 | sotrastaurin -0.06 | alvocidib -0.069 | Tubastatin A 0.152 | [1] 0.054 | defactinib 0.02 | rucaparib -0.007 | [2] -0.022 | encorafenib -0.006 | [3] 0 | filanesib 0.021 | zotarolimus 0.151 | idasanutlin -0.011 | alisertib -0.04 | [5] -0.008 | gefitinib 0.057 | [6] 0.045 | lapatinib -0.065 | pictilisib 0.067

B4GALT1 (UniProt P15291)
inactive: saracatinib -0.017 | sotrastaurin -0.07 | Tubastatin A 0.063 | [1] 0.023 | defactinib 0.066 | rucaparib 0.013 | [2] -0.041 | encorafenib 0.032 | [3] -0.084 | [4] -0.04 | filanesib 0.014 | zotarolimus 0.067 | idasanutlin 0 | alisertib 0.051 | [5] -0.037 | gefitinib 0.022 | [6] 0.021 | lapatinib 0.042 | pictilisib 0.128

BCL2L11 (UniProt O43521)
inactive: saracatinib 0.068 | sotrastaurin -0.142 | alvocidib 0.09 | Tubastatin A -0.057 | [1] -0.025 | defactinib -0.013 | rucaparib -0.028 | [2] -0.123 | encorafenib 0.035 | [3] 0.087 | filanesib 0.04 | zotarolimus -0.006 | idasanutlin 0.019 | alisertib 0.006 | gefitinib 0.09 | [6] 0.055 | pictilisib 0.254

BRD8 (UniProt Q9H0E9)
inactive: saracatinib 0.004 | sotrastaurin -0.001 | Tubastatin A -0.097 | [1] -0.017 | defactinib -0.047 | rucaparib -0.012 | [2] -0.08 | encorafenib -0.027 | [3] -0.009 | [4] -0.013 | filanesib 0.064 | zotarolimus -0.029 | idasanutlin 0.08 | alisertib -0.061 | [5] -0.032 | gefitinib 0.005 | [6] 0.017 | lapatinib -0.009 | pictilisib 0.103

ATR (UniProt Q13535)
active: [4] -0.267
inactive: saracatinib -0.044 | sotrastaurin -0.013 | Tubastatin A 0.02 | [1] 0.014 | defactinib -0.035 | rucaparib 0.008 | [2] 0.039 | encorafenib 0.008 | [3] -0.024 | filanesib 0.019 | zotarolimus 0.057 | idasanutlin -0.067 | alisertib -0.05 | [5] 0.031 | gefitinib 0.019 | [6] 0 | lapatinib 0.039 | pictilisib 0.112

BEX4 (UniProt Q9NWD9)
inactive: saracatinib 0.221 | sotrastaurin -0.137 | alvocidib -0.105 | [1] 0.098 | rucaparib 0.046 | [2] -0.042 | encorafenib 0.076 | filanesib 0.017 | zotarolimus -0.043 | alisertib 0.015 | [6] 0.027

B4GALT7 (UniProt Q9UBV7)
inactive: saracatinib -0.029 | sotrastaurin 0 | alvocidib 0.051 | Tubastatin A 0.038 | [1] 0.061 | defactinib -0.015 | rucaparib 0.054 | [2] -0.097 | encorafenib 0.058 | [3] -0.023 | [4] 0.109 | filanesib 0.016 | zotarolimus -0.033 | idasanutlin -0.06 | alisertib -0.11 | [5] 0.035 | [6] 0.076 | lapatinib 0.04 | pictilisib 0.124

BCAS1 (UniProt O75363)
inactive: saracatinib 0.025 | sotrastaurin 0.009 | alvocidib 0.061 | Tubastatin A -0.011 | [1] -0.007 | defactinib 0.022 | rucaparib 0.006 | [2] -0.017 | encorafenib -0.046 | [3] 0.157 | filanesib 0.022 | zotarolimus -0.003 | idasanutlin -0.016 | alisertib -0.218 | [5] 0.035 | gefitinib 0.118 | [6] 0.249 | lapatinib -0.033 | pictilisib 0.04

BIRC5 (UniProt O15392)
inactive: saracatinib 0.078 | sotrastaurin 0.017 | alvocidib -0.059 | Tubastatin A 0.018 | [1] 0.02 | defactinib -0.013 | rucaparib -0.097 | [2] -0.144 | encorafenib -0.116 | [3] 0 | [4] -0.07 | filanesib 0.031 | zotarolimus -0.052 | idasanutlin 0.314 | [5] -0.165 | gefitinib -0.144 | lapatinib -0.08

BRAP (UniProt Q7Z569)
inactive: saracatinib -0.04 | sotrastaurin -0.198 | Tubastatin A 0.046 | [1] 0.057 | defactinib -0.087 | rucaparib 0.076 | [2] -0.024 | encorafenib 0.042 | [3] -0.064 | [4] 0.062 | filanesib 0.02 | zotarolimus 0.01 | idasanutlin 0.028 | alisertib -0.058 | [5] -0.108 | gefitinib 0.053 | [6] -0.134 | lapatinib 0.073 | pictilisib -0.055

BRK1 isoform 2 (UniProt Q8WUW1)
inactive: saracatinib 0.036 | sotrastaurin 0.007 | Tubastatin A 0.037 | [1] -0.011 | defactinib -0.074 | rucaparib -0.05 | [2] -0.03 | encorafenib -0.063 | [3] -0.018 | [4] 0.113 | filanesib 0.127 | zotarolimus -0.049 | idasanutlin 0.031 | alisertib -0.076 | [5] -0.07 | gefitinib 0.05 | [6] -0.041 | lapatinib -0.032 | pictilisib 0.018

BCAR1 isoform 6 (UniProt P56945)
inactive: saracatinib 0.099 | sotrastaurin 0.099 | alvocidib 0.016 | Tubastatin A 0.039 | [1] -0.019 | defactinib -0.006 | rucaparib -0.011 | [2] -0.035 | encorafenib -0.028 | [3] -0.02 | [4] -0.072 | filanesib -0.054 | zotarolimus -0.04 | idasanutlin 0.246 | [5] -0.153 | lapatinib -0.009 | pictilisib -0.039

BECN1 (UniProt Q14457)
inactive: saracatinib 0.013 | sotrastaurin -0.038 | Tubastatin A -0.065 | [1] -0.029 | defactinib -0.054 | rucaparib -0.014 | [2] -0.013 | encorafenib 0.001 | [3] 0.018 | [4] 0.094 | filanesib -0.005 | zotarolimus -0.142 | idasanutlin -0.159 | alisertib -0.081 | [5] 0.117 | gefitinib 0 | [6] -0.045 | lapatinib 0.008 | pictilisib 0.086
